Test results published in the supplement of paper PMC3334620.
In all, about 33,000 sequences were measured (“E-score (-0.5 to 0.5)”: median about -0.0059, highest 2% from about 0.26 on). The list shows a part of the results.

Each sequence was assayed against T1, Cin5 (UniProt P40917) (assay: PBM E-score (8-mer binding enrichment) (E-score (-0.5 to 0.5)); higher = stronger / more preferred TF binding). Details: protein concentration: 100 nM; construct: GST-full length.
T1 sequence: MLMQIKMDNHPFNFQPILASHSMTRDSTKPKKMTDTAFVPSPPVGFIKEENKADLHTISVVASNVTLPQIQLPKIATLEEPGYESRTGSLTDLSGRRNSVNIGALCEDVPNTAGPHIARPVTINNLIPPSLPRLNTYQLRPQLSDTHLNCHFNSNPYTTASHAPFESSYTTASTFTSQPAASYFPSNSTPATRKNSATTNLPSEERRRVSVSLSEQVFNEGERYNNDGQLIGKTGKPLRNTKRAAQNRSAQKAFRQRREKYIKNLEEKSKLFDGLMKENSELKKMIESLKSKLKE
Outline: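 Full-length yeast transcription factors or their DNA-binding domains, GST-tagged and expressed with PURExpress, were applied at about 100-200 nM to universal all-10-mer Agilent arrays. These arrays had been made double-stranded by primer extension on fresh or once-stripped slides. Detection used fluorescent anti-GST, normalisation used masliner, and E-scores for ungapped eight-base words pooled with reverse complements came from the Universal PBM Analysis Suite.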

Row | Sequence | PBM E-score
1 | CGACCCTA | -0.148
2 | GGTGACCA | -0.182
3 | ACTCCCCG | 0.121
4 | AATTGCCG | -0.0809
5 | GGCGGACA | -0.112
6 | GCCAGTTA | 0.0154
7 | CTCTAGGC | -0.126
8 | CCGGACGG | -0.202
9 | GGAGACCA | -0.162
10 | CCCTGCTC | -0.23
11 | CTGCGTGC | -0.0801
12 | CTTTACCC | -0.185
13 | AGGGTGAA | -0.137
14 | CATATTCA | 0.129
15 | CGGCATGA | 0.123
16 | CGCCCTTA | -0.0701
17 | CACTGATC | 0.0106
18 | CCTGAAAC | -0.0118
19 | AGGCGCAC | -0.0161
20 | CGAGTACC | 0.0635
21 | CACTTCAA | -0.0898
22 | AATGATAC | 0.251

Copied from the entries so far for reference:
Row | Sequence | PBM E-score
7 | CTCTAGGC | -0.126
8 | CCGGACGG | -0.202

Additional entries

Row | Sequence | PBM E-score
23 | GACGTCTA | -0.0507
24 | ACAACCGG | -0.14
25 | ATACTGTA | 0.224
26 | CATTTGCC | -0.203
27 | TTCTGAAA | 0.0212
28 | AAACAACT | 0.139
29 | CACCTCCC | -0.324
30 | CGGTCAGC | 0.0507
31 | AAATTAGC | 0.0331
32 | GCCGAGCA | -0.174
33 | GTATATCA | 0.0654
34 | AAAGAGGA | -0.167
35 | GGAGGTTA | -0.218
36 | AGAAGGGA | -0.309
37 | ACGGCCGC | -0.0289
38 | GGAAGGGA | -0.191
39 | CCGGATAA | 0.134
40 | ATTTTTCG | 0.198
41 | GGGTTCAA | -0.0708
42 | CTCTCCCA | -0.186
43 | GTTGGAGA | -0.0966
44 | ACGGCAGG | -0.248

Row | Sequence | PBM E-score
45 | ATTTACTA | 0.161
46 | GTATATGA | 0.111
47 | CTATTGTC | 0.0269
48 | ACGGGAAT | -0.104
49 | ACCAAGTA | 0.119
50 | GATGGAAA | 0.0371
51 | TCCTCTCA | -0.0672
52 | GTTGTGAA | 0.0473
53 | GGGTCTAA | -0.109
54 | GTCGGGTA | -0.0198
55 | CTTAGATA | 0.23
56 | ATACCGTA | 0.0493
57 | ATGGCCAT | 0.0852
58 | AATCGCCT | 0.124
59 | CTGTTCGC | 0.0508
60 | GTTACTAA | 0.168
61 | GCCCACCC | 0.191
62 | CTGGGGTA | -0.0795
63 | GGCCTACA | -0.0994
64 | CCGTACAG | -0.169
65 | CGGGGAAC | -0.0378
66 | AAAATCGC | 0.0818

Row | Sequence | PBM E-score
67 | CCAAACTC | 0.112
68 | AACGCTCG | -0.0334
69 | GATGGGGC | -0.041
70 | ACCCGCGC | 0.2
71 | CGACCTAC | -0.23
72 | AACAATCA | 0.167
73 | CAATCACA | 0.0639
74 | ATGAATTC | 0.175
75 | AAACCCAA | 0.223
76 | ATCATAGG | -0.0596
77 | TGTGTAAA | 0.0976
78 | ACCGTAGT | -0.125
79 | CACTTTCC | 0.14
80 | ACCCGAAG | -0.094
81 | GCGTTAGC | -0.0129
82 | GAGACGAC | -0.188
83 | CAAATTAC | 0.107
84 | CTTAGGAA | 0.0323
85 | AGGTGTCA | 0.0947
86 | TGTTCAAA | 0.0813

Looked up above:
Under PBM E-score, GCGTTAGC shows -0.0129
Under PBM E-score, AAATTAGC shows 0.0331
Under PBM E-score, ACTCCCCG shows 0.121
